At least one structure is not confirmed: it was looked up by name or label, or the drawing left a doubt.
Experiments:
Test in all cases: Preservative challenge test (European Pharmacopoeia 7.0, 5.1.3) in anionic emulsion with Dracorin CE
E. coli = format: cell-based, Escherichia coli; conditions: day 0, 1.0% in anionic emulsion, pH 5.5
Method: (§1) The invention will be further described in the following on the basis of examples. The examples serve to illustrate the invention, without thereby restricting the scope of protection of the claims. For examples, 1 to 11 preservative challenge tests according to European Pharmacopoeia 7.0 (5.1.3. Efficacy of antimicrobial preservation) were used. For example 12, activities were determined by measuring minimum inhibitory concentrations (MIC values) according to DIN 58940. All numerical information relates to weight, unless stated otherwise.
(§2) Activity of Benzoic acid-3-hydroxypropylester (BAHP) against the microorganisms E. coli, P. aeruginosa, S. aureus, C. albicans and spores of A. brasiliensis was evaluated in an anionic emulsion with Dracorin CE as emulsifier. The pH value of the emulsion was 5.5.
(§3) Activity of Furoic acid-3-hydroxypropylester (FAHP) against the microorganisms E. coli, P. aeruginosa, S. aureus, C. albicans and spores of A. brasiliensis was evaluated in an anionic emulsion with Dracorin CE as emulsifier. The pH value of the emulsion was 5.5.
(§4) Activity of Anisic acid-3-hydroxypropylester (AAHP) against the microorganisms E. coli, P. aeruginosa, S. aureus, C. albicans and spores of A. brasiliensis was evaluated in an anionic emulsion with Dracorin CE as emulsifier. […]
(§5) Synergistic effects between Benzoic acid-3-hydroxypropylester (BAHP) and 1,2-Octanediol were determined. […]

P. aeruginosa = format: cell-based, Pseudomonas aeruginosa; conditions: day 0, 1.0% in anionic emulsion, pH 5.5
Method: as §1, §2, §3, §4, §5

S. aureus = format: cell-based, Staphylococcus aureus; conditions: day 0, 1.0% in anionic emulsion, pH 5.5
Method: as §1, §2, §3, §4, §5

C. albicans = format: cell-based, Candida albicans; conditions: pH 5.5
Method: as §1, §2, §3
(§6) Activity of Anisic acid-3-hydroxypropylester (AAHP) against the microorganisms E. coli, P. aeruginosa, S. aureus, C. albicans and spores of A. brasiliensis was evaluated in an anionic emulsion with Dracorin CE as emulsifier. The pH value of the emulsion was 5.5.
as §2, with “Synergistic effects between” for “Activity of”, “(BAHP) and 1,2-Octanediol were determined. Activity of BAHP, 1,2-Octanediol and the combination of BAHP and 1,2-Octanediol” for “(BAHP)”

[1] = system: spores of A. brasiliensis; format: cell-based, Aspergillus brasiliensis; conditions: pH 5.5
Method: as §1, §2, §3, §6
Activity of N-Methylsalicylamid (MSA) against the microorganism A. brasiliensis was evaluated in an anionic emulsion with Dracorin CE as emulsifier. The pH value of the emulsion was 5.5.
Activity of Furoic acid methylester (FAME) against the microorganism A. brasiliensis was evaluated in an anionic emulsion with Dracorin CE as emulsifier. The pH value of the emulsion was 5.5.
Activity of Salicylamide (SA) against the microorganism A. brasiliensis was evaluated in an anionic emulsion with Dracorin CE as emulsifier. The pH value of the emulsion was 5.5.
Activity of Salicylic acid hydroxyethyl ester (SAHE) against the microorganism A. brasiliensis was evaluated in an anionic emulsion with Dracorin CE as emulsifier. The pH value of the emulsion was 5.5.
Activity of Salicylic acid hydroxypropyl ester (SAHP) against the microorganism A. brasiliensis was evaluated in an anionic emulsion with Dracorin CE as emulsifier. The pH value of the emulsion was 5.5.
Activity of Benzoic acid-3-hydroxypropylester (BAHP) against spores of A. brasiliensis was evaluated in an anionic emulsion with Dracorin CE as emulsifier. The pH value of the emulsion was 7.
Activity of Anisic acid-3-hydroxypropylester (AAHP) against spores of A. brasiliensis was evaluated in an anionic emulsion with Dracorin CE as emulsifier. The pH value of the emulsion was 7. […]

[2] = day 0, 1.0% in anionic emulsion
[3] = day 2, 1.0% in anionic emulsion
[4] = day 7, 1.0% in anionic emulsion

O=C(OCCCO)c1ccco1 [FAHP, Furoic acid-3-hydroxypropylester]
Colony counts (cfu/g formulation) (E. coli): 4.6 × E6 cfu/g formulation | Colony counts (cfu/g formulation) (P. aeruginosa): 4.2 × E6 cfu/g formulation | Colony counts (cfu/g formulation) (S. aureus): 3.3 × E6 cfu/g formulation | Colony counts (cfu/g formulation) (C. albicans; [2]): 4.2 × E6 cfu/g formulation | Colony counts (cfu/g formulation) (C. albicans; [3]): 1.9 × E6 cfu/g formulation | Colony counts (cfu/g formulation) (C. albicans; [4]): 5.5 × E1 cfu/g formulation | Colony counts (cfu/g formulation) [1, 2]: 3.8 × E6 cfu/g formulation | Colony counts (cfu/g formulation) [1, 3]: 2.3 × E6 cfu/g formulation | Colony counts (cfu/g formulation) [1, 4]: 1.1 × E6 cfu/g formulation | Colony counts (cfu/g formulation) ([1]; day 14, 1.0% in anionic emulsion): 3.1 × E5 cfu/g formulation | Colony counts (cfu/g formulation) ([1]; day 28, 1.0% in anionic emulsion): 3.0 × E2 cfu/g formulation

From US11116710B2, “Antimicrobial compositions” (SYMRISE AG, priority 2016, dated 2021)
